The chains behind the UniProt entries cited, without tags or fusion partners. Where a name states a change or a piece, a line headed by the entry shows the natural chain unless it says otherwise.
UniProt P18054: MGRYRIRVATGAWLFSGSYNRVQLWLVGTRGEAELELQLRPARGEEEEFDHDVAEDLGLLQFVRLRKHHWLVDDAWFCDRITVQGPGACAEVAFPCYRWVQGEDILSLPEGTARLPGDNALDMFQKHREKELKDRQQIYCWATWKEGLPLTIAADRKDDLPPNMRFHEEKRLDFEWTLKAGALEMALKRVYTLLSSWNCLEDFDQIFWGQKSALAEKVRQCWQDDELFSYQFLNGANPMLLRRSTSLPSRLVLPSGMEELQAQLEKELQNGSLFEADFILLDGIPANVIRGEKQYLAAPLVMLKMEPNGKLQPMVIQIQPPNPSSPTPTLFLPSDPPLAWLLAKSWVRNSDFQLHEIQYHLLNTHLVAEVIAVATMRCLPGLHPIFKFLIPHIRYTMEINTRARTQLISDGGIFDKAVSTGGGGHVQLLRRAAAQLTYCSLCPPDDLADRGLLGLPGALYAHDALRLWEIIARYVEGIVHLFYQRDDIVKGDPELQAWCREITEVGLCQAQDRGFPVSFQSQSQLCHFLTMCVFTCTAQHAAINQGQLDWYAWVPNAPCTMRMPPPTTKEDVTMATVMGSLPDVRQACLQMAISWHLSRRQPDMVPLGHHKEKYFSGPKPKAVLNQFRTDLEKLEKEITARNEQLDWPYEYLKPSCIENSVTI

Out of some 580,000 compounds screened, about 6,100 (1.1%) were called active. The shares of active, inactive and inconclusive entries below differ from those in the screen. Calls come from the whole dose curve; as a rule, active = well fitted inhibition curve with a large enough effect; inconclusive = small, poorly fitted or top-dose-only effect, or another doubt; inactive = no such curve, though single readings can be large or run the other way. Potencies of inconclusive entries are doubtful fits and often do not repeat.
The molecules below were run against Polyunsaturated fatty acid lipoxygenase ALOX12 (Homo sapiens) (UniProt P18054) (assay: Primary qHTS assay for inhibitors of human arachidonate 12S-lipoxygenase (ALOX12): Round 2). Conditions: purified 12hLO, xylenol orange hydroperoxide absorbance; series mostly up to 108 µM.
How it was run: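 Hydroperoxide product was detected by ferrous iron/xylenol orange as the 573 to 405 nm absorbance ratio. Arachidonic acid at 40 uM (final) was turned over for 30 min at room temperature by 150 nM human 12hLO, pH 7.0 Hepes buffer, after 15 min compound preincubation.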
With COC(=O)c1c(NC(=O)CCCOc2cccc(C)c2)sc2c1CCC2 the Potency was inconclusive: 100 µM [inhibitor, partial curve, poor fit].
In the case of COc1ccc2[nH]c(=O)c(C(c3nnnn3CC3CCCO3)N3CCc4ccccc4C3)cc2c1 (centres undefined), the Potency is reported as inconclusive: 31.6 µM [inhibitor, partial curve, poor fit].
For O=[N+]([O-])c1cc(S(=O)(=O)Nc2ccccc2)ccc1N1CCN(c2ccccc2)CC1, the Potency was “inactive”.
In the case of CC(=O)Nc1ccc(S(=O)(=O)N2CCN(C(C)CCc3ccccc3)CC2)cc1 (centres undefined), the Potency is reported as active: 5.62 µM.
For Cc1oc(-c2ccccc2)nc1CC(=O)N(C)CC(=O)Nc1ccc(OC(F)(F)F)cc1, the Potency was inconclusive: 79.4 µM [inhibitor, partial curve, poor fit].
COC(=O)c1ccc2c(=O)n(CCCCCC(=O)O)c(=O)[nH]c2c1 was tested, and the Potency was “inactive”.
CN=c1scc(-c2ccc([N+](=O)[O-])cc2)n1/N=C/c1ccco1 was tested, and the Potency was inconclusive: 70.8 µM [inhibitor, single point].
COc1ccc(C(=O)OCC(=O)NC23CC4CC(CC(C4)C2)C3)c(O)c1 was tested, and the Potency was “inactive”.
For CC(C(=O)NC1CCN(Cc2ccccc2)CC1)N1Cc2ccccc2C1=O (centres undefined), the Potency was “inactive”.
In the case of COc1ccc(-c2cc(C(=O)NCC(=O)NC(C)C)c3ccccc3n2)cc1, the Potency is reported as “inactive”.
In the case of Cc1cc(C)c(Nc2ncnc(N)n2)c(C)c1, the Potency is reported as inconclusive: 141 µM [inhibitor, single point].
With CCc1ccc(C(=O)C2CC(=O)Nc3c2c(C)nn3-c2ccc(C)c(Cl)c2)s1 (centres undefined) the Potency was “inactive”.
Cn1cc(CN2CCC(C(=O)NC(c3ccc(F)cc3)c3ccc4ccccc4n3)CC2)c2ccccc21 (centres undefined) was tested, and the Potency was active: 44.7 µM.
With Cc1ccc(Nc2nc(NCc3ccco3)c3ccccc3n2)cc1 the Potency was inconclusive: 44.7 µM [inhibitor, partial curve, poor fit].
In the case of Clc1ccc(Nc2nnc(-c3ccc4c(c3)OCO4)o2)cc1, the Potency is reported as inconclusive: 44.7 µM [inhibitor, partial curve, poor fit].
For Clc1cccc(CON/C=N/c2ncnc3sccc23)c1, the Potency was inconclusive: 11.2 µM [inhibitor, partial curve, poor fit].
For N=c1c2ccccc2nc2n1CCCCCCCCCCC2, the Potency was inconclusive: 7.94 µM [inhibitor, full curve].
O=[N+]([O-])c1ccc(/C=N/Nc2ccc(S(=O)(=O)Nc3cccc(Cl)c3)cc2[N+](=O)[O-])cc1 was tested, and the Potency was “inactive”.
For COc1ccc(OC)c(NC(=O)c2c(-n3cnnn3)sc(C)c2C)c1, the Potency was “inactive”.
In the case of COc1ccccc1CN1C(=O)O[C@@H]2CN(c3nc(C)cc(C)n3)C[C@@H]21, the Potency is reported as “inactive”.
For O=C(O)c1ccccc1NS(=O)(=O)c1cccc(N=Nc2c(O)[nH]c(=S)[nH]c2=O)c1, the Potency was inconclusive: 5.62 µM [inhibitor, full curve, poor fit].
With CC(C)C(=O)NC(=S)Nc1ccc(S(=O)(=O)Nc2ccccc2)cc1 the Potency was inconclusive: 50.1 µM [inhibitor, partial curve].
For CC(CC(=O)N1CCc2ccccc21)S(=O)(=O)c1ccc2c(c1)NC(=O)CO2 (centres undefined), the Potency was “inactive”.
In the case of O=c1cc(-c2ccc(O)cc2)oc2cc(O)c([C@@H]3O[C@H](CO)[C@@H](O)[C@H](O)[C@H]3O)c(O)c12, the Potency is reported as “inactive”.
Cc1cc(NC(=O)CSc2nc3cc(C(=O)NCCCOC(C)C)ccc3c(=O)n2Cc2ccco2)no1 was tested, and the Potency was “inactive”.
In the case of COc1ccc(NC(=O)Cn2c(SCc3ccc(C)cc3)nc3cccnc32)cc1OC, the Potency is reported as inconclusive: 112 µM [inhibitor, partial curve, poor fit].
For Cc1ccc(C)c(CN2C(=O)c3ccccc3S(=O)(=O)c3ccc(C(=O)OCC4CCCO4)cc32)c1 (centres undefined), the Potency was inconclusive: 126 µM [inhibitor, partial curve, poor fit].
In the case of COc1ccc(CN2C(=O)CCCC2(C)c2nc3ccccc3[nH]2)cc1 (centres undefined), the Potency is reported as inconclusive: 6.31 µM [inhibitor, full curve, poor fit].
COc1ccc(-c2csc3nc(C)nc(NCCCO)c23)cc1OC was tested, and the Potency was “inactive”.
For N#Cc1ccc(CCC(=O)O)cc1, the Potency was active: 28.2 µM.
In the case of COCCNC(=O)[C@@H]1Cc2cn(Cc3nccn3C)c3cccc(c23)[C@H](CC(C)C)N1, the Potency is reported as “inactive”.
For O=C(C1CCC(CNS(=O)(=O)c2cccc3nsnc23)CC1)N1CCN(c2ccccn2)CC1 (centres undefined), the Potency was “inactive”.
With CCOC(=O)[C@H]1[C@H]2COc3ccc(Br)cc3[C@@H]2N2C(=O)CN(Cc3ccc(F)cc3)C(=O)[C@@]12C the Potency was inconclusive: 89.1 µM [inhibitor, single point].
In the case of CC1(C)Cc2c(sc(NC(=O)c3ccc(C(=O)c4ccccc4)cc3)c2C(N)=O)C(C)(C)N1, the Potency is reported as inconclusive: 50.1 µM [inhibitor, partial curve, poor fit].
With O=C(NCc1ccco1)C1COC2(CCCCC2)N1C(=O)c1cccc([N+](=O)[O-])c1 (centres undefined) the Potency was inconclusive: 14.1 µM [inhibitor, full curve, poor fit].
For COc1ccc(CN2CCC(N3CCN(c4ccccc4OC)CC3)CC2)cc1OC, the Potency was inconclusive: 4.47 µM [inhibitor, full curve, poor fit].
In the case of CN(CC1CCOC1)S(=O)(=O)c1ccc(F)cc1F (centres undefined), the Potency is reported as “inactive”.
With COc1ccc(-c2cc(-c3ccc(OC)nc3)cn3cncc23)cc1 the Potency was inconclusive: 89.1 µM [inhibitor, partial curve, poor fit].
Cc1ccc2nc(C)c(C(=O)NCc3cccnc3-n3cccn3)cc2c1 was tested, and the Potency was inconclusive: 100 µM [inhibitor, single point].
For COc1cccc(CNC(=O)c2cnc3sc(N4CCCC4)nn3c2=O)c1OC, the Potency was “inactive”.
With CC(C)NC(=S)N/N=C1\CCCCc2ccccc21 the Potency was active: 39.8 µM.
For CCc1c(C(=O)/C=C/c2cccc(C#N)c2)oc2ccccc12, the Potency was “inactive”.
With CC(=O)c1cn(CC(=O)NC2CCCCCCC2)c2ccccc12 the Potency was inconclusive: 112 µM [inhibitor, partial curve, poor fit].
For COc1ccc(-c2ocnc2C(=O)N2CCN(C(=O)C(c3ccccc3)c3ccccc3)CC2)cc1, the Potency was inconclusive: 28.2 µM [inhibitor, partial curve, poor fit].
Potency is the fitted concentration of half-maximal effect.
